Tests used:
[1] = single i.v. dose, female CD-1 mice, two weeks
From the text: Changes in body weight and mouse survival were monitored daily for two weeks. The MTD was defined as the maximal dose that causes neither greater than 15% of body weight loss nor mouse mortality within two weeks after administration. See Lu, J.; Huang, Y.; Zhao, W.; Marquez, R. T.; Meng, X.; Li, J.; Gao, X.; Venkataramanan, R.; Wang, Z.; Li, S., PEG-derivatized embelin as a nanomicellar carrier for delivery of paclitaxel to breast and prostate cancers. Biomaterials, 34, 1591-600 (2013).

Plasma pharmacokinetics = conditions: DOX in plasma, i.v. 5 mg DOX/kg, non-compartment model
Experimental: The blood samples were collected in heparinized tubes at different time points (3 min, 8 min, 15 min, 30 min, 1 h, 2 h, 4 h, 8 h, and 12 h) post-injection. The blood was centrifuged (2,500 rpm, 10 min) and plasma was collected for the analysis. […] Non-compartmental pharmacokinetic analysis was done by WinNonlin. […] At day 1 post-injection, tumor tissues and major organs were collected from the mice. The tissues were weighed and homogenized using Homogenizer PowerGen 500 (Fisher Scientific). […] The solutions were centrifuged (2,500 rpm, 10 min) and the supernatant was used for HPLC measurement.

Question: For `COc1cccc2c1C(=O)c1c(O)c3c(c(O)c1C2=O)C[C@@](O)(C(=O)CO)C[C@@H]3O[C@H]1C[C@H](N)[C@H](O)[C@H](C)O1` [DOX, doxorubicin], which MTD [1] is on record?
Answer: 10 mg/kg

Question: And the T1/2 (Plasma pharmacokinetics)?
Answer: 1.74 h

— patent US9855341B2, “Formulations and carrier systems including farnesylthiosalycylic moities” (University of Pittsburgh—Of the Commonwealth System of …, priority 2014, dated 2018)
